Data on one sequence can be found in publication PMC12581942.

The chains behind the UniProt entries cited, without tags or fusion partners.
UniProt E9JUM2, entry or part of it: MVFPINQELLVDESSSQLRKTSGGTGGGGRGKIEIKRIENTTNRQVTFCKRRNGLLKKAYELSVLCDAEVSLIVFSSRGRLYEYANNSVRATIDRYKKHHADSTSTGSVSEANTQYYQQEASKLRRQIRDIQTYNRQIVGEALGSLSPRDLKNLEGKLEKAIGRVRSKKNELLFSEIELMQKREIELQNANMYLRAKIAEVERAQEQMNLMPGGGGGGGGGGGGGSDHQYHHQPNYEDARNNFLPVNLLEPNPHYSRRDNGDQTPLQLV

For the data set, the target named is SlTAGL1-His (UniProt E9JUM2). The experiment in a line: EMSA. To be noted: + SlEBF3-GST (full length, E. coli), TAGL1 binding abolished; not given; Beyotime EMSA/Gel-Shift kit and Thermo LightShift Chemiluminescent EMSA kit; recombinant protein; residues 1-269; protein details: His (pET28a); label: biotin 3'.

No signal at the amounts used counts as a negative.

Consider “GAATTGAGCACTTGGCTTTTGTATATAGCTTCTATGTGTACCAAAATT (double strand) [SlPSY1 promoter probe]”, for which the binding result is given as “no binding”.
